Out of some 53,000 sequences screened, about 3,700 (7%) were called active.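 The calls were made as follows: active = gene knockdowns whose robust z-score for IL-1 alpha signal is at least 2 or at most -2, so actives lie on both sides; inactive = the rest.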 The list shows a part of the results.

The assay is described as follows: Components of the Cytosolic LPS Sensing Pathway: Gene Identification via Genome-wide siRNA Screen.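 Also: robust z of the log signal after scaling to non-targeting control siRNA wells of the plate.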 Particulars: RAW264.7 macrophages, IL-1a HTRF, actives lie on both sides, screened at 100 nM (by protocol), cells primed 5 h with Pam3CSK4 first. In outline:
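Three distinct siRNAs per gene were tested singly at 100 nM in RAW264.7 macrophages. Following Pam3CSK4 priming and 24 hour LipidA transfection, IL-1a secretion was read by HTRF.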
Background: In TR-FRET formats the signal depends on donor and acceptor labels being close together.
With GGCGCACAUAUCUGAUCUUTT against Tmed3, the z-score was inactive: 0.83.

For CCAGUAUCACUGGAUCAUATT against Sec22c, the z-score is inactive: -0.0645.

On to GGUUUGUGACCAAUAAAACTT against Elk3, for which the z-score is inactive: -0.417.

For GGCUUCCUCCACUCUUUCCTT against Rhbg, the z-score is inactive: -1.81.

Turning to GGGUGACAACCAAAGACUGTT against Mill1, the z-score is inactive: 0.174.

Consider GAUUUACUCUGGACAUUUUTT against Hgsnat, for which the z-score was inactive: -0.822.

On to GGAAAAUGUCCCACUUUUATT against Olfr70, for which the z-score is inactive: -0.926.

With GGAGCCCUUUCUACUGGUGTT against Snn, the z-score was inactive: -0.404.

Regarding CCAGCUAGAAAAUCUCUCCTT against Cnn2, the z-score is inactive: 0.0032.

GGACAACUCAGAUUGGACUTT against Adprhl2: the z-score was inactive: -1.22.

With GGUUGUGCUGUGAACAGAGTT against Atp23, the z-score is inactive: -0.176.

In the case of GGAAUCUUGUUAGCUAUGGTT against Olfr615, the z-score is inactive: 0.72.

As for GGGAUUCCUGGACAACAUUTT against Glce, the z-score is inactive: 0.616.

Regarding GGUGGAUGAAGUAAACCAGTT against Chrna3, the z-score was inactive: 1.42.

With GGACCUGGAUCUAUCCUACTT against Lrfn1, the z-score is inactive: -0.969.

GCCUGGAGACUACAUAUCCTT against Cdc20: the z-score was active: -2.09.

As for GGAAGUUUUGAAACUUGUUTT against Gabrp, the z-score was inactive: -0.258.

As to CCUUCCAGUAGACAUGGAATT against Zmym3, the z-score was inactive: 1.13.

Consider GCGAAUGUAGUGUAUUAUGTT against Prkd1, for which the z-score was inactive: 0.259.

On to GGGCGUAAUUAAGAAGGAATT against Mapk10, for which the z-score was inactive: 0.193.

In the case of GGAUGAAAAAGCUCACUUUTT against Srms, the z-score was inactive: 1.09.

Turning to GCAAGUUGUCAAAUCUAAATT against Tspan13, the z-score is inactive: 1.42.

GGUCAGAACAACGACAAGUTT against Tpcn1: the z-score was inactive: -0.563.

As to GGACAUGAAGAUCAAGUCCTT against Rps2, the z-score was inactive: -0.109.

As for GGCUUUUUCUACUUGUUCUTT against Olfr768, the z-score is inactive: 1.44.

Take GGUGGAAGGCACUUUUAUUTT against Zmpste24: the z-score was inactive: 0.172.

GCUCCUAUGCAAACAUUGCTT against Olfr1390: the z-score is inactive: 0.489.

For the sequence CCUCAAUGAGGUCCUGAUGTT against Olfr108, the z-score was inactive: -0.408.

“GGCAUGAAACCUCCAAAGCTT against 1520401A03Rik”: the z-score was inactive: 0.643.

GGACUUUAUCAAGGAGUAATT against Slc25a32: the z-score is inactive: -1.56.

With GCCUAUCUACGACCUCAUCTT against Kel, the z-score was inactive: -0.768.

Consider CCUGUCUUCUCUCUUGUAUTT against Zswim4, for which the z-score was inactive: -1.95.

Turning to GCGAUGUGGACAGAAGUACTT against Cyba, the z-score is inactive: 1.01.

Regarding GCCUCAUUAUAAAUCACACTT against Bclaf3, the z-score is inactive: 0.752.

On to GGCACGAGUUUGACAGUGCTT against Tmem140, for which the z-score was inactive: 0.494.

Take GGUGUCUCAUCAUGUUUCCTT against Ccl28: the z-score was inactive: 1.13.

As for GGCACAGACUAAGGUAUAGTT against Adra2c, the z-score was inactive: -1.51.

For CGAAACGAGGAACUUUUAATT against Ccdc96, the z-score is inactive: -1.83.

For GGAAGUUGGUGAGCUGGUATT against Ccl17, the z-score was active: 2.4.

As to GGGAGCAGCGAGAUGAAUUTT against Ano2, the z-score was inactive: 0.126.

As for GGUGGAAGACAAGAGGAUATT against Sytl5, the z-score was inactive: -0.474.

On to CGUACAAAUAUGAUUCGAATT against Ocrl, for which the z-score was inactive: 1.83.

In the case of CGGACUUUUUUGGAUUUUCTT against Zbtb18, the z-score is inactive: 1.11.

In the case of UCGAUAGCCUCAAUCAGCATT against Zfp58, the z-score was inactive: -1.99.

On to CGUAGACCUUUUCCACUACTT against Plod1, for which the z-score is inactive: 0.45.

On to GGGACAAGAUCUGAACUUCTT against Rgl3, for which the z-score is inactive: -0.36.

Consider UCAUUGAGAAAGGAGAAGATT against Cox17, for which the z-score was inactive: -0.547.

In the case of CCUGUUAGCUGAAUUCAACTT against Entpd4, the z-score was inactive: 0.91.

Turning to CCCUCUGGUUCUAGCUGUUTT against Afap1, the z-score is inactive: 0.381.

For the sequence “GGUUUUCCAAAAAACACCCTT against 1700084J12Rik”, the z-score was inactive: 0.544.

For GGCAACUGACUAGCUGAUUTT against Atp2a1, the z-score was inactive: -1.58.

GCAUAAAGAGGCCAUACCCTT against Zmiz1: the z-score is inactive: 0.743.

With GGAAAAUCAAUACAUUGGATT against Pxk, the z-score was inactive: -0.154.

For the sequence CCUUUAGGUUACAAAAACCTT against Pdgfd, the z-score was inactive: 0.216.

Regarding GGGCAUAUAUUCAAGACUUTT against Olfml1, the z-score was inactive: 1.35.

As for GGUUCAGGUUCUUCUAAAATT against Cd109, the z-score was inactive: 1.42.

Consider CCUCGAAACUCAUUUCCAGTT against Prkch, for which the z-score was inactive: -0.603.

Regarding GCCUGUACAUGACGGAAAGTT against Bag4, the z-score was inactive: 0.155.

Take GGCUUAGAUCUACUAUUUCTT against Fv4: the z-score was inactive: 0.0497.

As for CCCUGUUGAAGAGACGAGATT against Mrpl21, the z-score is inactive: -1.14.

In the case of GGUAAAUGUCUAGAAAUGGTT against Abcd2, the z-score was inactive: -0.269.

As for GGAUCCUCACAAUAAACUUTT against Sult2b1, the z-score was inactive: -0.0396.

“GGCAUUAAUCCAGUCUUGGTT against A730049H05Rik”: the z-score was inactive: -1.46.

Consider GCCAAGCAUUACCAUACUUTT against Rab21, for which the z-score is inactive: -1.73.

Take GGACCACCGUGAUCAACAUTT against Ifitm2: the z-score is inactive: 0.215.

For the sequence GGACAAUGGGAGCUAUCGATT against Gpld1, the z-score is inactive: -1.73.

For the sequence CCUAUACUUUUGGUCUUAGTT against Coa7, the z-score was inactive: -0.778.

For the sequence GGAGGAGUGGAUGUGAUUATT against Dao, the z-score is inactive: -0.27.

On to GGAGCUGUUUGACCAAAUCTT against Epb41l5, for which the z-score was inactive: 0.439.

Consider CGACCUUUGAGACUGAAGATT against Septin8, for which the z-score was inactive: 0.625.

As for GGCUGGACACUGAGAAAAATT against Adcy4, the z-score was inactive: 1.63.

With GGAUGACUUGUGAAUAUUUTT against Cd70, the z-score is inactive: -0.842.

Regarding CCCUUAUCUCAUGUGUUAATT against Olfr74, the z-score was inactive: -0.18.

As to GGCUAUGAAACAGUACAAUTT against Alyref, the z-score was inactive: -1.01.

Consider AUGAAUUUCUACUCGCCACTT against Pramel26, for which the z-score was inactive: 0.0656.

Regarding GGCAAAUAAGAGAUAUCCATT against Chmp3, the z-score was inactive: 0.793.

Consider GGAAGUGAGAAGAUGGAUATT against Fam163b, for which the z-score was inactive: 0.93.

For GGGACAUUCCUUAUCAUAATT against Pde3a, the z-score was inactive: -1.43.

With CCGAGGUGAUUAGGAUAACTT against Traf3ip1, the z-score is inactive: -0.694.

For CGUACUUAUUGUUCCUAUCTT against Wdr93, the z-score is inactive: 1.67.

With CCAGAAGAACAAGGAAGUATT against Gm6460, the z-score was inactive: -0.914.

As for “GCCAAGUGUAGGGACUCAGTT against A630052C17Rik”, the z-score was inactive: -1.66.

As for GGAGAUCACACAACAUUUUTT against Ndrg1, the z-score is inactive: 1.49.

In the case of GGGAAACUGGUACAGUACATT against Ces1c, the z-score was inactive: -0.317.

Regarding CCUUUGUGGAAUACGUCAUTT against Fa2h, the z-score was inactive: -0.229.

Take GCUACCGUGGGCGAUGUAATT against Dbi: the z-score was inactive: -0.37.

As for AGUCUACAACUACUCCUGUTT against Glrx2, the z-score was inactive: 0.728.

For GCCAUACACAGUGGCAUAATT against Zfp811, the z-score is inactive: 0.395.

Turning to GGCCAAACAUAGAACUGGUTT against Mbd3l2, the z-score is inactive: -1.73.

As for GCGACAUCACAAGAAUCGATT against Fancd2, the z-score was inactive: -0.979.

For the sequence CCAUAUUCAAGGGUGAAAUTT against Dsg3, the z-score is inactive: 0.809.

GGGUUGACUUCAAGAACAUTT against Cxcl2: the z-score was inactive: 1.5.

For GGCCUCCCUACUUGAAGACTT against Crip3, the z-score is inactive: -0.0974.

GGUUAAAUAUACCUAAGGATT against Spo11: the z-score is inactive: 0.0736.

GGAGUUUAUAACACAUAGGTT against Adamtsl1: the z-score was inactive: 0.858.

In the case of GGGAAUUUGGGCAUGAUCATT against Olfr44, the z-score was active: -2.02.

Take GGCGAGAAUUUCAUCGGGATT against Tulp1: the z-score is inactive: -0.00281.

With CCCUUUUACUGAGAAUAAUTT against Lamtor3, the z-score was inactive: -0.673.

In the case of CGUCAACUCUACUGGACCATT against Grp, the z-score was inactive: -0.199.

On to GGUCUUCCAAGGUCAGAAGTT against Cyp2d10, for which the z-score is inactive: 1.5.

With GGAUCCUUCGGGUCUUAAATT against Kctd9, the z-score was inactive: 0.646.

As to GGGUGAAAUUUUUAAUCGGTT against Lbp, the z-score is inactive: -0.963.

Turning to GGACAUGCUUAUCCUUUGUTT against Slc38a5, the z-score is inactive: -1.55.

As to GGGAAGAACAUCUCUGCUCTT against S100a3, the z-score was inactive: 0.141.

As for GGAUGAUUCCAAGAUGCUATT against Lin28b, the z-score was inactive: 0.914.

Turning to GGAUGAAAGUCCUGGACAGTT against Gli3, the z-score is active: 5.97.

“CCUCUCUAGGCCAUGUUCUTT against 1110008P14Rik”: the z-score was inactive: 0.381.

Values taken from PubChem BioAssay AID1508600 (Functional Genomics Laboratory (NCATS/FGL), 2020).
